Reference: patent publication US20120141373A1 (University of California, published 2012)
No constants are given. Whether binding was seen depends on the method and setting. Some entries that bind do so weakly or less than the wild type.

Molecular target: T1, human MT-SP1 protease domain (human, UniProt Q9Y5Y6 615-855)
T1 construct: domain: protease domain; also called hMT-SP1; matriptase
T1 sequence (looked up): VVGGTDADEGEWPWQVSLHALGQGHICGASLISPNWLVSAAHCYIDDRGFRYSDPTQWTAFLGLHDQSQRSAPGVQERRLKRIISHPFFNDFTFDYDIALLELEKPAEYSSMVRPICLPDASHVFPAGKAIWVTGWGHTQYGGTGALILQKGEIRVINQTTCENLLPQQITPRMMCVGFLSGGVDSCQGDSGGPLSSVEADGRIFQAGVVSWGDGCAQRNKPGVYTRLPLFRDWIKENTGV
Test: structure of the complex (figure legend)

binding: binds
B1: E2 Fab (Fab, V domains shown)
VH: QVQLVQSGGGLVKPGGSLRLSCAASGFTFSSYAMSWVRQAPGKGLEWVSAISGSGGSTYYADSVKGRFTISRDNSKNTLYLQMSSLRAEDTAVYYCARPYLTYPQRRGPQNVSPFDNWGQGTMVTVSS
VL: DIQMTQSPSSLSASVGDRVTITCRASQGISSYLAWYQQKPGKAPKLLIYAASSLQSGVPSRFSGSGSGTDFTLTISSLQPEDFAVYYCQQHGNLPYTFGDGTKVEIKR
notes: also called anti-MT-SP1 Fab antibody E2
